Values of other authors as cited in US7335682B2, “Pharmaceutical compositions and methods for treating immune-response associated diseases of the surface and the anterior segment of the eye” (The Zhongshan Opthalmic Center, priority 2000, dated 2008).

Conditions: cited from earlier work

SMILES: C=CC[C@@H]1/C=C(\C)C[C@H](C)C[C@H](OC)[C@H]2O[C@@](O)(C(=O)C(=O)N3CCCC[C@H]3C(=O)O[C@H](/C(C)=C/[C@@H]3CC[C@@H](O)[C@H](OC)C3)[C@H](C)[C@@H](O)CC1=O)[C@H](C)C[C@@H]2OC.O [tacrolimus, Tacrolimus]
- solubility in organic solvents (methanol, ethanol, chloroform): readily dissolved
- solubility in water (water): dissolves poorly
